Measurements reported in PubChem BioAssay AID652259 (Drosophila RNAi Screening Center, 2013).

Purpose: 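Knock-downs that push a Wingless-driven reporter up or down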 (primary screen)
System: Drosophila clone 8 imaginal disc epithelial cells
Reagents: long dsRNA against Drosophila genes
Treatment: pathway stimulated by co-transfected Wingless expression plasmid
Detection: 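Dual luciferase reads per well after Wingless plasmid stimulation: reporter firefly light and Renilla control light; activity is firefly divided by Renilla, a ratio not deposited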
Direction: firefly reporter light: higher = more Wg reporter light, before normalisation; Renilla control light: higher = more transfected or surviving cells
Hit rule: 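Strong candidates differ from their plate mean by at least two out of four per-plate statistical tests; weak candidates meet just one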
Meaning of the calls: active = candidate regulator (raises or lowers reporter); inactive = not a candidate
The screen tested about 22,000 reagents; this is a random part of those with a known target gene and a result. Of all reagents, 233 (1.1%) got an active call. 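Light values are raw, unnormalised plate reads; the ratio scores behind the reporter calls were not deposited.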 Reagents against one gene are numbered here. A plus sign joins genes that one reagent is predicted to hit. Not stated in the record: the amount of reagent, the time to read-out, the dose of the treatment.

gene | dsRNA no. | reporter change call, replicate 1 | firefly reporter light, replicate 1 | firefly reporter light, replicate 2 | Renilla control light, replicate 1 | Renilla control light, replicate 2 | Call
Ddx56 (DEAD-box helicase 56) | 1 | – | 10423 | – | 8105 | – | inactive
CG32452 | 1 | – | 4372 | – | 2101 | – | inactive
CG32452 | 2 | – | 7.68e5 | 7.30e5 | 3.33e5 | 3.97e5 | inactive
CG42671 | 1 | – | 4711 | – | 752 | – | inactive
CG42671 | 2 | – | 8608 | – | 2726 | – | inactive
CG18789 | 1 | – | 3286 | 12658 | 1876 | 5722 | inactive
Spag1 (Spag1 axonemal dynein assembly factor) | 1 | – | 7578 | – | 2905 | – | inactive
kumpel (kin of rumpel) | 1 | – | 25826 | – | 18896 | – | inactive
kumpel (kin of rumpel) | 2 | – | 19016 | – | 13546 | – | inactive
kumpel (kin of rumpel) | 3 | – | 27401 | – | 23306 | – | inactive
kumpel (kin of rumpel) | 4 | – | 19220 | – | 17308 | – | inactive
kumpel (kin of rumpel) | 5 | – | 17286 | – | 16712 | – | inactive
kumpel (kin of rumpel) | 6 | – | 18732 | – | 19488 | – | inactive
CG17930 | 1 | – | 1927 | 5705 | 1040 | 1627 | inactive
bap (bagpipe) | 1 | – | 4938 | – | 1771 | – | inactive
CG2182 | 1 | – | 3555 | – | 2295 | – | inactive
mip130 (Myb-interacting protein 130) | 1 | – | 22651 | – | 16052 | – | inactive
CG3568 | 1 | – | 18899 | – | 9962 | – | inactive
CG13407 | 1 | – | 35280 | – | 5096 | – | inactive
CG13014 | 1 | – | 16695 | – | 7993 | – | inactive
PGAP1 (Post-GPI attachment to proteins 1) | 1 | – | 2059 | 4428 | 714 | 1970 | inactive
Act79B (Actin 79B) | 1 | – | 16610 | – | 3489 | – | inactive
CG9886 | 1 | – | 15510 | – | 4172 | – | inactive
Taf13 (TBP-associated factor 13) | 1 | – | 2496 | 5649 | 699 | 2172 | inactive
wuc (Wake-up-call) | 1 | – | 4224 | – | 1553 | – | inactive
Cyp309a2 (Cytochrome P450 309a2) | 1 | – | 2649 | 5027 | 984 | 2665 | inactive
CG12974 | 1 | – | 19778 | – | 6246 | – | inactive
CG11816 | 1 | – | 15994 | – | 7352 | – | inactive
CG4194 | 1 | – | 2551 | 6865 | 1048 | 2024 | inactive
Phae2 (Phaedra 2) | 1 | – | 3013 | 6579 | 1224 | 2923 | inactive
Ca-alpha1D (Ca[2+]-channel protein alpha[[1]] subunit D) | 1 | – | 8378 | – | 2985 | – | inactive
Cyp12b2 (Cytochrome P450 12b2) | 1 | – | 6842 | – | 2080 | – | inactive
CG4927 | 1 | – | 5315 | – | 2409 | – | inactive
CG5068 | 1 | – | 5452 | – | 2038 | – | inactive
Aduk (Another Drosophila Unc-51-like kinase) | 1 | – | 9750 | – | 2348 | – | inactive
CG9396 | 1 | – | 11747 | – | 2331 | – | inactive
Polr1D + DCTN6-p27 | 1 | – | 3564 | 7772 | 1056 | 2946 | inactive
D12 | 1 | – | 12440 | – | 4868 | – | inactive
CG17159 + CG17162 | 1 | – | 15541 | – | 8769 | – | inactive
CG17159 + CG17162 | 2 | – | 46755 | – | 9571 | – | inactive
Cbs (Cystathionine beta-synthase) | 1 | – | 2117 | 5509 | 829 | 2594 | inactive
CG13437 | 1 | – | 5276 | – | 2437 | – | inactive
Eig71Ea (Ecdysone-induced gene 71Ea) | 1 | – | 8998 | – | 3808 | – | inactive
CG3257 | 1 | – | 11286 | – | 4800 | – | inactive
CG13627 | 1 | – | 12853 | – | 12976 | – | inactive
CG12702 | 1 | – | 22220 | – | 1536 | – | inactive
nsl1 (non-specific lethal 1) | 1 | Wg reporter activity raised | 3729 | 6358 | 122 | 200 | active
CG10943 | 1 | – | 5831 | – | 1754 | – | inactive
Or85d (Odorant receptor 85d) | 1 | – | 16472 | – | 3208 | – | inactive
